Taken from: PubChem BioAssay AID1224828 (NIAID, 2016)
Screen: 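Find genes required for NF-kappaB p65 moving into the nucleus after LPS in mouse macrophages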 (primary screen). System: mouse RAW264.7 G9 macrophage reporter cells (GFP-p65, Tnf promoter-mCherry). Knock-down reagent: siRNA pool against mouse genes, 100 nM. Time to read-out: 2 days siRNA transfection, then 40 min LPS before fixation. Conditions: LPS (Salmonella minnesota R595) at 10 ng/ml. Read-out: 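Microscopy ratio of nuclear to perinuclear-ring GFP-p65 signal, scaled to the plate median; gene score is the average of two replicate robust z-scores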. Reading the numbers: p65 translocation robust z-score: higher = more nuclear NF-kappaB p65 after LPS than the plate median; nuclear/cytoplasmic p65 ratio: higher = more nuclear NF-kappaB p65. Rule for the call: 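Called active when z exceeds 3.3 or falls under -1.56 (median of Tlr4 controls), giving activity score of at least 50; no calls for control wells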. Calls: active = hit (p65 shift raised or lowered); inactive = no clear change.
The whole screen tested about 17,000 reagents; shown is an unselected part. 762 of all reagents (4.5%) count as active. 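Active calls include both raised and lowered p65 entry, mostly lowered; wells with fewer than 50 cells lack a z-score.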 Raw values vary from plate to plate and are shown uncorrected. A number with no mark means an inactive call. Reagent sequences are not shown.

| target | p65 translocation robust z-score | nuclear/cytoplasmic p65 ratio, rep 1 | nuclear/cytoplasmic p65 ratio, rep 2 | low cell count flag |
| --- | --- | --- | --- | --- |
| Diablo | 1.56 | 1.74 | 1.53 | enough cells to score |
| Med30 | -0.95 | 1.24 | 1.02 | enough cells to score |
| Acot3 | – | 1.13 | 1.09 | fewer than 50 cells per well; well left out of scoring |
| Fermt2 | -0.86 | 1.27 | 1.07 | enough cells to score |
| Szt2 | 0.76 | 1.45 | 1.63 | enough cells to score |
| Sh2d1b1 | – | 1.06 | 1.3 | fewer than 50 cells per well; well left out of scoring |
| Hmgn1 | -0.86 | 1.27 | 1.31 | enough cells to score |
| Cdnf | 0.61 | 1.46 | 1.69 | enough cells to score |
| Phf5a | 1.92 | 1.69 | 1.46 | enough cells to score |
| Cenpn | 0.34 | 1.78 | 1.55 | enough cells to score |
| Kcnj4 | 0.52 | 1.69 | 1.44 | enough cells to score |
| Tgoln1 | – | 1.32 | 1.15 | fewer than 50 cells per well; well left out of scoring |
| Def6 | -0.33 | 1.42 | 1.61 | enough cells to score |
| Brcc3 | – | 1.15 | 1.37 | fewer than 50 cells per well; well left out of scoring |
| Rgmb | 0.67 | 1.57 | 1.24 | enough cells to score |
| Mindy1 | – | 1.04 | 0.871 | fewer than 50 cells per well; well left out of scoring |
| Med10 | -0.24 | 1.54 | 1.75 | enough cells to score |
| Nmur1 | -1.07 | 1.29 | 1.49 | enough cells to score |
| Zbtb26 | -0.28 | 0 | 1.49 | enough cells to score |
| Ubqln1 | 1.6 | 1.76 | 1.7 | enough cells to score |
| Mthfs | -0.56 | 1.68 | 1.52 | enough cells to score |
| Gamt | 0.04 | 1.45 | 1.36 | enough cells to score |
| Serpinb10 | 1.94 | 1.59 | 1.54 | enough cells to score |
| Zfyve16 | -0.33 | 1.32 | 1.26 | enough cells to score |
| Ankrd22 | 0.57 | 1.7 | 1.76 | enough cells to score |
| Clpb | -0.21 | 1.41 | 1.2 | enough cells to score |
| Ppp3cb | 0.33 | 1.58 | 1.42 | enough cells to score |
| Pcif1 | -1.89 (active) | 1.35 | 1.17 | enough cells to score |
| Tspoap1 | 0.98 | 1.82 | 1.71 | enough cells to score |
| Ahsa1 | 1.79 | 1.8 | 1.97 | enough cells to score |
| 4632433K11Rik | -1.53 | 1.08 | 1.1 | enough cells to score |
| A930002I21Rik | 0.98 | 1.49 | 1.68 | enough cells to score |
| Rbmx | 2.25 | 1.7 | 1.49 | enough cells to score |
| Gpr161 | -0.02 | 1.47 | 1.61 | enough cells to score |
| Oxr1 | 0.65 | 1.54 | 1.32 | enough cells to score |
| Amz2 | 2.19 | 1.25 | 1.5 | enough cells to score |
| Daw1 | – | 1.34 | 1.23 | fewer than 50 cells per well; well left out of scoring |
| Fas | -1.76 (active) | 1.25 | 1.29 | enough cells to score |
| Vcl | 0.58 | 1.62 | 2.01 | enough cells to score |
| Arhgef1 | -0.49 | 1.49 | 1.59 | enough cells to score |
| Rnf208 | – | 1.46 | 1.56 | fewer than 50 cells per well; well left out of scoring |
| Tas2r119 | 0.58 | 1.58 | 1.69 | enough cells to score |
| Or2k2 | – | 1.66 | 1.46 | fewer than 50 cells per well; well left out of scoring |
| A630031M04Rik | 4.09 (active) | 2.02 | 1.98 | enough cells to score |
| Mettl21a | – | 1.36 | 1.39 | fewer than 50 cells per well; well left out of scoring |
| Or8b44 | – | 1.25 | 1.21 | fewer than 50 cells per well; well left out of scoring |
| Bbs9 | -0.38 | 1.37 | 1.36 | enough cells to score |
| Trav13-5 | -1.68 (active) | 1.32 | 1.31 | enough cells to score |
| Ndst2 | -0.77 | 1.79 | 1.36 | enough cells to score |
| Rpusd1 | – | 2.06 | 1.58 | fewer than 50 cells per well; well left out of scoring |
| Mapk1ip1 | – | 1.48 | 1.25 | fewer than 50 cells per well; well left out of scoring |
| Zfand5 | -0.96 | 1.28 | 1.14 | enough cells to score |
| Klhdc8a | 1.11 | 1.61 | 1.59 | enough cells to score |
| 4930432E11Rik | -0.26 | 1.23 | 1.33 | enough cells to score |
| Bpifb3 | -0.15 | 1.48 | 1.14 | enough cells to score |
| Ccdc22 | -1.65 (active) | 1.23 | 1.16 | enough cells to score |
| Mapk7 | 1.97 | 1.92 | 1.62 | enough cells to score |
| C1qbp | 0.2 | 1.55 | 1.45 | enough cells to score |
| Prkrip1 | 0.06 | 1.39 | 1.22 | enough cells to score |
| Cavin4 | – | 1.49 | 1.6 | fewer than 50 cells per well; well left out of scoring |
| Yeats4 | -0.09 | 1.36 | 1.42 | enough cells to score |
| Slc30a7 | – | 2.12 | 1.16 | fewer than 50 cells per well; well left out of scoring |
| Or10p1 | -0.83 | 1.33 | 1.21 | enough cells to score |
| Hs3st2 | – | 0.952 | 1.18 | fewer than 50 cells per well; well left out of scoring |
| Gpsm3 | 0.74 | 0 | 1.66 | enough cells to score |
| Stk32a | 0.55 | 1.59 | 1.29 | enough cells to score |
| Bglap | – | 1.1 | 1.65 | fewer than 50 cells per well; well left out of scoring |
| A130079P16Rik (retired record) | – | 1.09 | 1.47 | fewer than 50 cells per well; well left out of scoring |
| Or4f54 | -0.53 | 1.61 | 1.28 | enough cells to score |
| Ppfia2 | -0.05 | 1.53 | 1.32 | enough cells to score |
| Acsm3 | – | 1.8 | 1.66 | fewer than 50 cells per well; well left out of scoring |
| Bex3 | -0.1 | 1.42 | 1.41 | enough cells to score |
| Krt76 | -0.12 | 1.64 | 1.56 | enough cells to score |
| Rnf4 | 0.38 | 1.5 | 1.64 | enough cells to score |
| Edar | -0.32 | 1.4 | 1.35 | enough cells to score |

10 entries from above, set out differently.
{"target":"Serpinb10","p65 translocation robust z-score":1.94,"nuclear/cytoplasmic p65 ratio, rep 1":1.59,"nuclear/cytoplasmic p65 ratio, rep 2":1.54,"low cell count flag":"enough cells to score"}
{"target":"Zfyve16","p65 translocation robust z-score":-0.33,"nuclear/cytoplasmic p65 ratio, rep 1":1.32,"nuclear/cytoplasmic p65 ratio, rep 2":1.26,"low cell count flag":"enough cells to score"}
{"target":"Ankrd22","p65 translocation robust z-score":0.57,"nuclear/cytoplasmic p65 ratio, rep 1":1.7,"nuclear/cytoplasmic p65 ratio, rep 2":1.76,"low cell count flag":"enough cells to score"}
{"target":"Clpb","p65 translocation robust z-score":-0.21,"nuclear/cytoplasmic p65 ratio, rep 1":1.41,"nuclear/cytoplasmic p65 ratio, rep 2":1.2,"low cell count flag":"enough cells to score"}
{"target":"Ppp3cb","p65 translocation robust z-score":0.33,"nuclear/cytoplasmic p65 ratio, rep 1":1.58,"nuclear/cytoplasmic p65 ratio, rep 2":1.42,"low cell count flag":"enough cells to score"}
{"target":"Pcif1","p65 translocation robust z-score":"-1.89 (active)","nuclear/cytoplasmic p65 ratio, rep 1":1.35,"nuclear/cytoplasmic p65 ratio, rep 2":1.17,"low cell count flag":"enough cells to score"}
{"target":"Tspoap1","p65 translocation robust z-score":0.98,"nuclear/cytoplasmic p65 ratio, rep 1":1.82,"nuclear/cytoplasmic p65 ratio, rep 2":1.71,"low cell count flag":"enough cells to score"}
{"target":"Ahsa1","p65 translocation robust z-score":1.79,"nuclear/cytoplasmic p65 ratio, rep 1":1.8,"nuclear/cytoplasmic p65 ratio, rep 2":1.97,"low cell count flag":"enough cells to score"}
{"target":"4632433K11Rik","p65 translocation robust z-score":-1.53,"nuclear/cytoplasmic p65 ratio, rep 1":1.08,"nuclear/cytoplasmic p65 ratio, rep 2":1.1,"low cell count flag":"enough cells to score"}
{"target":"A930002I21Rik","p65 translocation robust z-score":0.98,"nuclear/cytoplasmic p65 ratio, rep 1":1.49,"nuclear/cytoplasmic p65 ratio, rep 2":1.68,"low cell count flag":"enough cells to score"}
